# In the supplement of paper PMC12872613:
# Structures can show the parent of a compound that is named as a salt. Some of the results follow. No stated cut-off is given here; in the data, active = 0.7 or more and inactive = the rest. Repeats are few or missing, and single values can be far off.
# Tested on: MiaPaCa-2 CLSA-25
# Experiment: cell death relative to DMSO vehicle (fraction); higher = more cytotoxic
# Conditions: 5 µM; treatment time 48 h; medium cystine 25 µM
row,Structure (SMILES),cell death
1,CCCCCCCCCCCCCCOc1ccc(C(=O)O)o1,active: 0.84
2,CC(=O)Oc1ccc(C(c2ccc(OC(C)=O)cc2)c2ccccn2)cc1 [Bisacodyl],inactive: 0.206
3,CN1CCN(Cc2ccc(-c3cnc4[nH]cc(-c5ccc6[nH]ccc6c5)c4c3)cc2)CC1,active: 0.849
4,C[C@H](CCC(=O)O)[C@H]1CC[C@H]2[C@@H]3C[C@H](O)[C@@H]4C[C@H](O)CC[C@]4(C)[C@H]3CC[C@]12C [Hyodeoxycholic acid],inactive: 0.0455
5,O=C(NCCN1CCOCC1)c1ccc(Cl)cc1 [Moclobemide],inactive: 0.119
6,C[C@@](Cc1ccc(O)c(O)c1)(NN)C(=O)O [Carbidopa Hydrate],inactive: 0.475
7,NC(CO)C(=O)NNCc1ccc(O)c(O)c1O (stereo unspecified) [Benserazide hydrochloride],inactive: 0.00562
8,Cn1c(=O)c2nc[nH]c2n(C)c1=O [Theophylline monohydrate],inactive: 0.119
9,Cc1c(Cl)cccc1S(=O)(=O)Nc1nc(CC(=O)N2CCN(C)CC2)cs1,inactive: 0.2
10,CCc1nc(N)nc(N)c1-c1ccc(Cl)cc1 [Pyrimethamine],inactive: 0.236
11,CC(/C=C1\SC(=S)N(CC(=O)O)C1=O)=C\c1ccccc1 [Epalrestat],inactive: 0.424
12,NS(=O)(=O)NCCNc1nonc1/C(=N/O)Nc1ccc(F)c(Br)c1 [Epacadostat],inactive: 0.197
13,CC(=O)NC[C@H]1CN(c2ccc(N3CCOCC3)c(F)c2)C(=O)O1 [Linezolid],inactive: -0.0356
14,Oc1cc(Cl)ccc1Oc1ccc(Cl)cc1Cl [Triclosan],active: 0.801
15,COc1ccc(-c2cc(=O)c3c(O)cc(O)cc3o2)cc1O [Diosmetin],inactive: 0.163
16,N#Cc1ccc([C@H]2CCc3cncn32)c(F)c1 [Osilodrostat],inactive: 0.019

# Ordered by molar mass (low to high): part of the list above.
row,Structure (SMILES),cell death
2,CC(=O)Oc1ccc(C(c2ccc(OC(C)=O)cc2)c2ccccn2)cc1 [Bisacodyl],inactive: 0.206
4,C[C@H](CCC(=O)O)[C@H]1CC[C@H]2[C@@H]3C[C@H](O)[C@@H]4C[C@H](O)CC[C@]4(C)[C@H]3CC[C@]12C [Hyodeoxycholic acid],inactive: 0.0455
12,NS(=O)(=O)NCCNc1nonc1/C(=N/O)Nc1ccc(F)c(Br)c1 [Epacadostat],inactive: 0.197

# More results follow.

row,Structure (SMILES),cell death
1,Cc1cc(OCCCS(C)(=O)=O)cc(C)c1-c1cccc(COc2ccc3c(c2)OC[C@H]3CC(=O)O)c1,inactive: 0.587
2,Cc1cnc(-c2cnc(NCCNc3ccc(C#N)cn3)nc2-c2ccc(Cl)cc2Cl)[nH]1,inactive: 0.171
3,CC1(C)O[C@H]2CC(=O)OC[C@]23[C@H]2CC[C@@]4(C)[C@H](c5ccoc5)OC(=O)[C@H]5O[C@]54[C@]2(C)C(=O)C[C@@H]13 [Limonin],inactive: -0.0155
4,NC(=O)CC[C@H](N)C(=O)O [L-Glutamine],active: 0.867
5,OC[C@H]1OC(O)[C@@H](O)[C@@H](O)[C@@H]1O (stereo partly drawn) [D-Mannose],inactive: 0.627
6,OC[C@H]1O[C@@H](c2ccc(Cl)c(Cc3ccc(O[C@H]4CCOC4)cc3)c2)[C@H](O)[C@@H](O)[C@@H]1O [Empagliflozin],active: 0.793
7,C[C@H]1[C@H](C)CC[C@]2(C(=O)O[C@@H]3O[C@H](CO[C@@H]4O[C@H](CO)[C@@H](O[C@@H]5O[C@H](C)[C@H](O)[C@@H](O)[C@H]5O)[C@H](O)[C@H]4O)[C@@H](O)[C@H](O)[C@H]3O)CC[C@]3(C)C(=CC[C@@H]4[C@@]5(C)C[C@@H](O)[C@H](O)[C@@](C)(CO)[C@@H]5CC[C@]43C)[C@H]12 [Asiaticoside],inactive: 0.129
8,CC(C)(C)C(=O)Oc1ccc(S(=O)(=O)Nc2ccccc2C(=O)NCC(=O)O)cc1 [Sivelestat],inactive: 0.00776
9,C=C1CC[C@H](O)C/C1=C/C=C1\CCC[C@]2(C)[C@@H]([C@H](C)/C=C/[C@H](C)C(C)C)CC[C@@H]12 [Vitamin D2],inactive: 0.132
10,C[C@@]12C[C@@]3(O)O[C@@H](O1)[C@]1(COC(=O)c4ccccc4)[C@H]3C[C@@]12O[C@@H]1O[C@H](CO)[C@@H](O)[C@H](O)[C@H]1O [Paeoniflorin],inactive: 0.133
11,Fc1ccc(-c2c3cccc(C(F)(F)F)c3nn2Cc2ccc(F)cc2Cl)cc1,inactive: 0.482
12,Cc1cc(F)c(C(=O)Nc2cccc(-c3nncn3C(C)C)n2)cc1-n1cnc(C2CC2)c1 [Selonsertib],inactive: 0.602
13,COc1ccc(-c2ccccc2)cc1NS(=O)(=O)c1cc(Cl)cc(Cl)c1O,inactive: 0.155
14,CCc1cc(C(N)=S)ccn1 [Ethinamide],inactive: 0.143
15,Cc1cnc(C(=O)O)c[n+]1[O-] [Acipimox],inactive: 0.114
